# Experimental data as given in the supplement of paper PMC9015667.
# Counter-ions that a name gives are not always drawn. This is one part of the list. Repeats are few or missing, and single values can be far off.
# Experiments:
# Test in all cases: reduction in cell viability relative to untreated/vehicle; higher = more growth inhibition
# Details in all cases: 200 nM; 72 h
# M229P = system: M229P (parental melanoma line)
# M229R = system: M229R (matched melanoma line resistant to BRAF inhibitors)
# M238P = system: M238P (parental melanoma line)
# M238R = system: M238R (matched melanoma line resistant to BRAF inhibitors)
# M249P = system: M249P (parental melanoma line)
# M249R = system: M249R (matched melanoma line resistant to BRAF inhibitors)
# UACC62P = system: UACC62P (parental melanoma line)
# UACC62R = system: UACC62R (matched melanoma line resistant to BRAF inhibitors)
Compound,reduction in cell viability (M229P) [%],reduction in cell viability (M229R) [%],reduction in cell viability (M238P) [%],reduction in cell viability (M238R) [%],reduction in cell viability (M249P) [%],reduction in cell viability (M249R) [%],reduction in cell viability (UACC62P) [%],reduction in cell viability (UACC62R) [%]
Cc1nc2c([nH]1)-c1ccccc1N(C(=O)c1ccc(NC(=O)c3ccccc3-c3ccccc3)cc1)CC2 [Conivaptan hydrochloride],< 0,< 0,< 0,< 0,4.43,< 0,9.32,< 0
CCn1c(-c2nonc2N)nc2cncc(CNC3CCNCC3)c21,< 0,< 0,< 0,< 0,< 0,< 0,3.53,3.79
Cc1ccc(NC(=O)c2ccc(CN3CC[C@H](N(C)C)C3)c(C(F)(F)F)c2)cc1Nc1nccc(-c2cncnc2)n1 [Bafetinib],< 0,< 0,15.1,< 0,2.98,< 0,23.4,< 0
CCCCCCCCCC(=O)N[C@H]1[C@H](Oc2c3cc4cc2Oc2ccc(cc2Cl)[C@@H](O[C@@H]2O[C@H](CO)[C@@H](O)[C@H](O)[C@H]2NC(C)=O)[C@@H]2NC(=O)[C@H](NC(=O)[C@@H]4NC(=O)[C@H]4NC(=O)[C@@H](Cc5ccc(c(Cl)c5)O3)NC(=O)[C@H](N)c3ccc(O)c(c3)Oc3cc(O)cc4c3)c3ccc(O)c(c3)-c3c(OC4O[C@H](CO)[C@@H](O)[C@H](O)[C@@H]4O)cc(O)cc3[C@@H](C(=O)O)NC2=O)O[C@H](CO)[C@@H](O)[C@@H]1O (some centres undefined) [Teicoplanin],< 0,< 0,< 0,< 0,< 0,< 0,< 0,< 0
C[C@H](Cc1ccc(O)c(O)c1)[C@@H](C)Cc1ccc(O)c(O)c1 [Masoprocol],< 0,< 0,< 0,< 0,< 0,< 0,< 0,< 0
CCNc1cc(NC2CCC(O)CC2)nc(Nc2ccc3c(ccn3Cc3ccccc3)c2)n1 (centres undefined) [Cdk4/6 Inhibitor IV],< 0,< 0,< 0,< 0,< 0,< 0,< 0,< 0
C[C@]1(c2nc3c(C(N)=O)cccc3[nH]2)CCCN1 [Veliparib],< 0,< 0,< 0,< 0,< 0,< 0,< 0,< 0
COc1cc2c(Oc3ccc(-c4cnc(Nc5ccc(F)cc5)n(C)c4=O)cc3F)ccnc2cc1OCCCN1CCOCC1,< 0,< 0,36,16.1,< 0,< 0,21.5,< 0
Cc1cnc(NC(=O)C2=C(O)c3ccccc3S(=O)(=O)N2C)s1 [Meloxicam],< 0,< 0,< 0,< 0,< 0,< 0,< 0,< 0
O=[N+]([O-])c1cn2c(n1)OC[C@@H](OCc1ccc(OC(F)(F)F)cc1)C2,< 0,< 0,< 0,< 0,< 0,< 0,< 0,< 0
COc1ccc(C2CNC(=O)C2)cc1OC1CCCC1 (centres undefined) [Rolipram],< 0,< 0,< 0,< 0,< 0,< 0,< 0,–
Cn1c(NCCN(CCO)CCCc2ccc([N+](=O)[O-])cc2)cc(=O)n(C)c1=O [Nifekalant],< 0,< 0,< 0,< 0,< 0,3.2,< 0,< 0
CC(C)(C)c1nc(-c2cccc(NS(=O)(=O)c3c(F)cccc3F)c2F)c(-c2ccnc(N)n2)s1 [Dabrafenib],35.5,< 0,49.6,< 0,70.4,< 0,62.8,23.8
C[C@@]1(C(=O)Nc2ccc(F)nc2)CCCN1c1nc(Nc2cc(C3CC3)n[nH]2)c2cccn2n1,6.61,22.5,29.6,< 0,< 0,< 0,2.85,< 0
C=C1C[C@@]2(O)O[C@@]3(C[C@H]2C(C)C)[C@@H](C)CC[C@@H]13 [Curcumol],< 0,< 0,< 0,< 0,< 0,< 0,< 0,< 0
Nc1ncnc2c1nc(Cl)n2[C@@H]1O[C@H](CO)[C@@H](O)[C@H]1O,< 0,< 0,< 0,< 0,< 0,< 0,< 0,< 0
Cc1ccc(-c2cc(C(F)(F)F)nn2-c2ccc(S(N)(=O)=O)cc2)cc1 [Celecoxib],< 0,< 0,< 0,< 0,< 0,< 0,< 0,< 0
CS[C@H]1SC[C@H]2C(=O)N(C)[C@@H](C(C)C)C(=O)OC[C@@H](NC(=O)c3cnc4ccccc4n3)C(=O)N[C@@H](C)C(=O)N(C)[C@@H]1C(=O)N(C)[C@@H](C(C)C)C(=O)OC[C@@H](NC(=O)c1cnc3ccccc3n1)C(=O)N[C@@H](C)C(=O)N2C [Echinomycin],81.1,78.9,86.6,71.5,90.9,91.8,78.3,82.4
NC1(Cc2ccc(Cl)cc2)CCN(c2ncnc3[nH]ccc23)CC1,< 0,< 0,< 0,< 0,< 0,< 0,< 0,< 0
N[C@@H](Cc1ccc(O)c(O)c1)C(=O)O [Levodopa],< 0,< 0,< 0,< 0,< 0,< 0,< 0,< 0

# Record cards, from the list above:
# CCNc1cc(NC2CCC(O)CC2)nc(Nc2ccc3c(ccn3Cc3ccccc3)c2)n1 (centres undefined) [Cdk4/6 Inhibitor IV] in the list: reduction in cell viability (M229P) [%]: < 0; reduction in cell viability (M229R) [%]: < 0; reduction in cell viability (M238P) [%]: < 0; reduction in cell viability (M238R) [%]: < 0; reduction in cell viability (M249P) [%]: < 0; reduction in cell viability (M249R) [%]: < 0; reduction in cell viability (UACC62P) [%]: < 0; reduction in cell viability (UACC62R) [%]: < 0
# C[C@H](Cc1ccc(O)c(O)c1)[C@@H](C)Cc1ccc(O)c(O)c1 [Masoprocol] in the list: reduction in cell viability (M229P) [%]: < 0; reduction in cell viability (M229R) [%]: < 0; reduction in cell viability (M238P) [%]: < 0; reduction in cell viability (M238R) [%]: < 0; reduction in cell viability (M249P) [%]: < 0; reduction in cell viability (M249R) [%]: < 0; reduction in cell viability (UACC62P) [%]: < 0; reduction in cell viability (UACC62R) [%]: < 0
# COc1ccc(C2CNC(=O)C2)cc1OC1CCCC1 (centres undefined) [Rolipram] in the list: reduction in cell viability (M229P) [%]: < 0; reduction in cell viability (M229R) [%]: < 0; reduction in cell viability (M238P) [%]: < 0; reduction in cell viability (M238R) [%]: < 0; reduction in cell viability (M249P) [%]: < 0; reduction in cell viability (M249R) [%]: < 0; reduction in cell viability (UACC62P) [%]: < 0

# More results:

Compound,reduction in cell viability (M229P) [%],reduction in cell viability (M229R) [%],reduction in cell viability (M238P) [%],reduction in cell viability (M238R) [%],reduction in cell viability (M249P) [%],reduction in cell viability (M249R) [%],reduction in cell viability (UACC62P) [%],reduction in cell viability (UACC62R) [%]
COc1ccc(C2CC(=O)c3c(O)cc(OC4OC(COC5OC(C)C(O)C(O)C5O)C(O)C(O)C4O)cc3O2)cc1OC (centres undefined) [Methyl Hesperidin],< 0,< 0,< 0,< 0,< 0,< 0,< 0,< 0
C=C[C@H]1CN2CC[C@H]1C[C@@H]2[C@@H](O)c1ccnc2ccc(OC)cc12 [Quinidine],< 0,< 0,< 0,< 0,< 0,< 0,< 0,12.6
Cc1ccccc1C(C(=O)NC1CCCCC1)N(C(=O)CNc1ccc(C#N)cc1)c1cccc(F)c1 (centres undefined),< 0,< 0,< 0,< 0,< 0,< 0,< 0,< 0
CC(=O)OCC(=O)[C@@]12N=C(C)O[C@@H]1C[C@H]1[C@@H]3CCC4=CC(=O)C=C[C@]4(C)[C@H]3[C@@H](O)C[C@@]12C [Deflazacort],< 0,< 0,< 0,< 0,< 0,< 0,< 0,< 0
Nc1nc(F)nc2c1ncn2[C@@H]1O[C@H](CO)[C@@H](O)[C@H]1O [2-Fluoroadenosine],22.6,68.5,69.4,65.9,20.9,34.2,72.7,81.9
C[C@H](NC(=O)[C@@H](O)c1cc(F)cc(F)c1)C(=O)N[C@@H]1C(=O)N(C)c2ccccc2-c2ccccc21,< 0,< 0,< 0,< 0,< 0,< 0,< 0,< 0
COCCOc1ccc2c(c1)ncn2-c1ccc2cccc(N3CCC(N)CC3)c2n1,< 0,< 0,< 0,< 0,< 0,< 0,< 0,< 0
CCCC(CCC)C(=O)O [Valproic acid sodium salt],< 0,< 0,< 0,< 0,< 0,< 0,< 0,< 0
CC(=O)NCCC(=O)N[C@@H](CCC(N)=O)C(=O)N[C@@H](CO)C(=O)N[C@@H](CCC(N)=O)C(=O)N[C@@H](CCC(N)=O)C(=O)N[C@H](C(=O)N[C@@H](Cc1ccccc1)C(=O)N[C@]1(C)CCCCCC/C=C\CCC[C@@](C)(C(=O)N[C@@H](CCC(N)=O)C(=O)N[C@@H](CC(N)=O)C(N)=O)NC(=O)[C@H](CC(C)C)NC(=O)[C@H](CC(C)C)NC(=O)[C@@H](CCCNC(=N)N)NC(=O)[C@H](Cc2c[nH]c3ccccc23)NC(=O)[C@H](CC(C)C)NC(=O)[C@H](CC(N)=O)NC1=O)[C@H](C)O,< 0,< 0,< 0,< 0,< 0,< 0,< 0,< 0
CC1(C)S[C@@H]2[C@H](NC(=O)[C@H](N)c3ccc(O)cc3)C(=O)N2[C@H]1C(=O)O [Amoxicillin sodium],< 0,< 0,< 0,< 0,< 0,< 0,< 0,< 0
CC(C)(C)C(=O)OCOP(=O)(COCCn1cnc2c(N)ncnc21)OCOC(=O)C(C)(C)C [Adefovir dipivoxil],< 0,< 0,< 0,< 0,< 0,< 0,14.1,37
COc1cc2nc(-c3cc(F)ccc3O)nc(N[C@@H]3CNC[C@H]3C(C)(C)O)c2cc1OC,< 0,< 0,< 0,< 0,< 0,< 0,< 0,< 0
CCc1cncnc1N1CCN(Cc2nc3ccc(C(F)(F)F)cc3[nH]2)CC1,< 0,< 0,< 0,< 0,< 0,< 0,< 0,< 0
COc1cc2ncnc(Nc3cccc(Cl)c3)c2cc1OC,< 0,< 0,< 0,< 0,< 0,< 0,< 0,< 0
CC(C)C[C@H](NC(=O)CNC(=O)c1cc(Cl)ccc1Cl)B(O)O,91.3,84.6,90.6,94.5,92.9,93.3,89.6,87.4
COC1CCC(N(C(=O)C2CCC(C)CC2)c2cc(C3=CCCCC3)sc2C(=O)O)CC1 (centres undefined),< 0,< 0,< 0,< 0,< 0,< 0,< 0,< 0
CN(C)CCN(Cc1ccc(Cl)cc1)c1ccccn1 [Chloropyramine hydrochloride],< 0,< 0,< 0,< 0,< 0,2.3,< 0,< 0
CN[C@@H]1[C@@H](O)[C@@H](O[C@@H]2[C@@H](O)[C@H](O[C@H]3O[C@H](CN)[C@@H](O)[C@H](O)[C@H]3O)[C@@H](N)C[C@H]2NC(=O)[C@@H](O)CN)OC[C@]1(C)O [Isepamicin],< 0,< 0,< 0,< 0,< 0,< 0,< 0,< 0
CN(C)CCCN=c1c2ccccc2n(C)c2[nH]c(=O)n(C)c(=O)c12,< 0,< 0,< 0,< 0,< 0,< 0,16.5,< 0
O=C(O)c1ccc2c(c1)nc(Nc1cccc(Cl)c1)c1ccncc12 [Silmitasertib],< 0,< 0,< 0,< 0,< 0,6.69,2.55,< 0
